For 2 molecules, binding results are on record in paper PMC6372475.

Sequences of proteins named here, by UniProt entry; tags and fusion partners are left off.
UniProt Q9UKV8: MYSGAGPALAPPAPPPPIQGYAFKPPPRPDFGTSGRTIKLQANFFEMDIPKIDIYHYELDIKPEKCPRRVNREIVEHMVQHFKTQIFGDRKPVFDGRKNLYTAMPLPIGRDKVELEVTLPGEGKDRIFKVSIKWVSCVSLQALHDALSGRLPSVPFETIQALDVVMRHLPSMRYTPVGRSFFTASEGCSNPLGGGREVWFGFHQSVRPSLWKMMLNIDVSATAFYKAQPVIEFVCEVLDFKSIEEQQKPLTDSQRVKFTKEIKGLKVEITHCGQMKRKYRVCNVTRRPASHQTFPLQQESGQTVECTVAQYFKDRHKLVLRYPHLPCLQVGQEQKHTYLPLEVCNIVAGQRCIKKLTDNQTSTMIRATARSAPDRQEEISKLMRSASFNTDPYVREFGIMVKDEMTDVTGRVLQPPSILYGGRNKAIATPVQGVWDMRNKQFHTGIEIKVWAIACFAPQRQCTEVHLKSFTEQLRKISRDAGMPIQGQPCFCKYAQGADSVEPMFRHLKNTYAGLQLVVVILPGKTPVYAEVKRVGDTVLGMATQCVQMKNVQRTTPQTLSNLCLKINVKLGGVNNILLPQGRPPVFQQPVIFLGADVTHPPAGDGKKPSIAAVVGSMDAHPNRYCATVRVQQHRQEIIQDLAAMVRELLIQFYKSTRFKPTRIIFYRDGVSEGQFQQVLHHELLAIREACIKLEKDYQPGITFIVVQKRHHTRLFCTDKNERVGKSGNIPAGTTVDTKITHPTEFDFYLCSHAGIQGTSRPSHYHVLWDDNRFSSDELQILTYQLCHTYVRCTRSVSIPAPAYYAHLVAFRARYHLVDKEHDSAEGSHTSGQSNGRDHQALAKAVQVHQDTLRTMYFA

The target of test [1] is Myc-tagged AGO2 (Argonaute2), wild type (UniProt Q9UKV8). Kind of test: co-IP; two tagged proteins co-transfected into 293T cells; lysis in RIPA buffer (50 mM Tris-HCl pH7.4, 150 mM NaCl, 1% NP-40); IP with anti-Myc or anti-Flag antibody and protein A/G-agarose at 4 °C overnight, Western blotting. In general terms: Immunoblotting shows a protein as a band on a membrane.
Test [2] deals with endogenous AGO2 (human (endogenous in 293T)) (UniProt Q9UKV8). Kind of test: co-IP; endogenous proteins of 293T lysate; IP with anti-AGO2 or anti-HDAC7 antibody, normal IgG as negative control, Western blotting.

Results are given in words; binding and its absence hold for the method and conditions named. Binding seen in cells or lysates may run through a third protein. Some binding calls cover weakened binding; strength is not graded here. For some assays here: Where a sequence is shown, tags or fusion partners need not be part of it.

B1: Flag-tagged HDAC7 (enzyme, UniProt Q8WUI4 1-952)
chain: MDLRVGQRPPVEPPPEPTLLALQRPQRLHHHLFLAGLQQQRSVEPMRLSMDTPMPELQVGPQEQELRQLLHKDKSKRSAVASSVVKQKLAEVILKKQQAALERTVHPNSPGIPYRTLEPLETEGATRSMLSSFLPPVPSLPSDPPEHFPLRKTVSEPNLKLRYKPKKSLERRKNPLLRKESAPPSLRRRPAETLGDSSPSSSSTPASGCSSPNDSEHGPNPILGSEALLGQRLRLQETSVAPFALPTVSLLPAITLGLPAPARADSDRRTHPTLGPRGPILGSPHTPLFLPHGLEPEAGGTLPSRLQPILLLDPSGSHAPLLTVPGLGPLPFHFAQSLMTTERLSGSGLHWPLSRTRSEPLPPSATAPPPPGPMQPRLEQLKTHVQVIKRSAKPSEKPRLRQIPSAEDLETDGGGPGQVVDDGLEHRELGHGQPEARGPAPLQQHPQVLLWEQQRLAGRLPRGSTGDTVLLPLAQGGHRPLSRAQSSPAAPASLSAPEPASQARVLSSSETPARTLPFTTGLIYDSVMLKHQCSCGDNSRHPEHAGRIQSIWSRLQERGLRSQCECLRGRKASLEELQSVHSERHVLLYGTNPLSRLKLDNGKLAGLLAQRMFVMLPCGGVGVDTDTIWNELHSSNAARWAAGSVTDLAFKVASRELKNGFAVVRPPGHHADHSTAMGFCFFNSVAIACRQLQQQSKASKILIVDWDVHHGNGTQQTFYQDPSVLYISLHRHDDGNFFPGSGAVDEVGAGSGEGFNVNVAWAGGLDPPMGDPEYLAAFRIVVMPIAREFSPDLVLVSAGFDAAEGHPAPLGGYHVSAKCFGYMTQQLMNLAGGAVVLALEGGHDLTAICDASEACVAALLGNRVDPLSEEGWKQKPNLNAIRSLEAVIRVHSKYWGCMQRLASCPDSWVPRVPGADKEEVEAVTALASLSVGILAEDRPSEQLVEEEEPMNL
As for B1, the binding entry in test [1] was “binds”.

B2: endogenous HDAC7 (enzyme, UniProt Q8WUI4 1-952)
chain: B1 chain
As for B2, the binding result in test [2] was “binds”.
